Laboratory results as given in publication doi:10.1101/2020.10.02.311787 (bioRxiv, 2020).
Results are given in words; binding and its absence hold for the method and conditions named. In cells and extracts the contact can be indirect. Binding can be weak; no strength is given.

Sequences of proteins named here, by UniProt entry; tags and fusion partners are left off.
UniProt O75365, whole entry: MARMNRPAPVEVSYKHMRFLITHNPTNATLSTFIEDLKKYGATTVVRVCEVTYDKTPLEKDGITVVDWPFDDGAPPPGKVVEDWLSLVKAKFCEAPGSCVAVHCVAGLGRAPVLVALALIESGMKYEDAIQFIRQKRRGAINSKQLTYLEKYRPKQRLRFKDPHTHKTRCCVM

Biological target: 3XFLAG-tagged PRL-3, recombinant (human) (UniProt O75365)
Test: co-IP

With “CNNM3 CBS domain fused to a hemagglutinin (HA) tag (from UniProt Q8NE01) (domain or fragment)” the binding was “binds”.
